Results deposited as PubChem BioAssay AID493246 (Drosophila RNAi Screening Center, 2011).
The deposit covers about 21,000 reagents; this is a random part of those that have a named target and a result. Of all reagents, 429 (2%) are marked active. 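Values are raw and not normalised between plates; calls rest on per-plate z-scores that were not deposited.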 Not stated in the record: the amount of reagent, the time to read-out.

- Assay: 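Genes fly cells need to grow and stay alive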 (primary screen)
- Cells: Drosophila Kc and S2R+ cells
- Reagents: long dsRNA against Drosophila genes
- Detection: 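Cell number per well after knock-down, printed as raw plate values; calls were based on per-plate z-scores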
- Scale: Kc cell number and S2R+ cell number: higher = more cells remaining
- Hit rule: 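Counted as a hit if cell number falls by a z-score of at least 3 within its plate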

| gene knocked down | DRSC id | Kc cell number, rep 1 | Kc cell number, rep 2 | S2R+ cell number, rep 1 | S2R+ cell number, rep 2 | activity call |
| --- | --- | --- | --- | --- | --- | --- |
| Psf3 | DRSC18216 | 1.69e6 | 1.60e6 | 1.03e6 | 1.16e6 | inactive |
| CG5707 | DRSC08573 | 1.54e6 | 1.71e6 | 1.15e6 | 1.21e6 | inactive |
| Dop1R1 | DRSC13021 | 1.42e6 | 1.52e6 | 1.10e6 | 1.27e6 | inactive |
| Dop1R1 | DRSC16652 | 1.64e6 | 1.51e6 | 1.06e6 | 1.19e6 | inactive |
| CG5327 | DRSC06930 | 1.54e6 | 1.53e6 | 1.22e6 | 1.24e6 | inactive |
| EcR | DRSC04906 | 1.53e6 | 1.57e6 | 1.34e6 | 1.49e6 | inactive |
| EcR | DRSC04910 | 1.32e6 | 1.36e6 | 1.14e6 | 1.20e6 | inactive |
| cn | DRSC07594 | 1.65e6 | 1.75e6 | 1.36e6 | 1.64e6 | inactive |
| CG17024 (retired record) | DRSC02562 | 1.81e6 | 1.94e6 | 1.20e6 | 1.39e6 | inactive |
| CG8837 | DRSC00711 | 1.47e6 | 1.48e6 | 1.12e6 | 1.27e6 | inactive |
| SCaMC | DRSC10293 | 1.41e6 | 1.45e6 | 1.20e6 | 1.17e6 | inactive |
| SCaMC | DRSC10415 | 1.67e6 | 1.63e6 | 1.31e6 | 1.60e6 | inactive |
| L2HGDH | DRSC02082 | 1.46e6 | 1.58e6 | 1.31e6 | 1.22e6 | inactive |
| CG14657 | DRSC12219 | 1.84e6 | 1.93e6 | 1.38e6 | 1.49e6 | inactive |
| CG14657 | DRSC12243 | 1.62e6 | 1.68e6 | 1.17e6 | 1.29e6 | inactive |
| GstT1 | DRSC06243 | 1.70e6 | 1.76e6 | 1.32e6 | 1.47e6 | inactive |
| CG4678 | DRSC19911 | 1.55e6 | 1.58e6 | 1.06e6 | 1.15e6 | inactive |
| CG4678 | DRSC19912 | 1.52e6 | 1.53e6 | 1.06e6 | 1.13e6 | inactive |
| PRL-1 | DRSC03393 | 1.39e6 | 1.53e6 | 1.24e6 | 1.45e6 | inactive |
| Cyp4e1 | DRSC07370 | 1.46e6 | 1.55e6 | 1.28e6 | 1.39e6 | inactive |
| CR41501 | DRSC07785 | 5.80e5 | – | 8.86e5 | – | inactive |
| Hacl | DRSC06061 | 1.65e6 | 1.57e6 | 1.13e6 | 1.09e6 | inactive |
| CG14183 | DRSC10182 | 1.55e6 | 1.59e6 | 1.35e6 | 1.34e6 | inactive |
| AsnS | DRSC11468 | 1.40e6 | 1.37e6 | 9.85e5 | 1.13e6 | inactive |
| pnt | DRSC17028 | 1.26e6 | 1.29e6 | 7.07e5 | 7.93e5 | inactive |
| Obp18a | DRSC19736 | 1.43e6 | 1.48e6 | 1.04e6 | 1.12e6 | inactive |
| Vm26Ac | DRSC02329 | 1.64e6 | 1.74e6 | 1.10e6 | 1.27e6 | inactive |
| CG14926 | DRSC02409 | 1.71e6 | 1.84e6 | 1.47e6 | 1.58e6 | inactive |
| CG15535 | DRSC15071 | 1.44e6 | 1.49e6 | 1.01e6 | 1.09e6 | inactive |
| E(z) | DRSC11147 | 1.30e6 | 1.38e6 | 1.28e6 | 1.21e6 | inactive |
| salto | DRSC06291 | 1.33e6 | 1.42e6 | 1.12e6 | 1.24e6 | inactive |
| CG10576 | DRSC09745 | 1.10e6 | 1.41e6 | 1.24e6 | 9.01e5 | inactive |
| Cht9 | DRSC04079 | 1.30e6 | 1.38e6 | 1.08e6 | 1.19e6 | inactive |
| Nnp-1 | DRSC02165 | 1.59e6 | 1.80e6 | 1.20e6 | 1.40e6 | inactive |
| CG18449 | DRSC06754 | 1.45e6 | 1.60e6 | 1.28e6 | 1.41e6 | inactive |
| GILT2 | DRSC14196 | 1.62e6 | 1.69e6 | 1.28e6 | 1.37e6 | inactive |
| T48 | DRSC16878 | 1.51e6 | 1.54e6 | 1.03e6 | 1.13e6 | inactive |
| Snr1 | DRSC12369 | 1.24e6 | 1.33e6 | 1.21e6 | 1.21e6 | inactive |
| Or98b | DRSC16775 | 1.41e6 | 1.47e6 | 1.02e6 | 1.07e6 | inactive |
| BomBc3 | DRSC15873 | 1.35e6 | 1.33e6 | 1.19e6 | 1.28e6 | inactive |
| CG34309 | DRSC14838 | 1.45e6 | 1.45e6 | 1.12e6 | 1.22e6 | inactive |
| kuz | DRSC03555 | 1.25e6 | 1.29e6 | 1.19e6 | 1.31e6 | inactive |
| CG1024 | DRSC12496 | 1.50e6 | 1.70e6 | 1.32e6 | 1.54e6 | inactive |
| GstT4 | DRSC19757 | 7.01e5 | – | 9.87e5 | – | inactive |
| CG3355 | DRSC00598 | 1.44e6 | 1.43e6 | 1.14e6 | 1.25e6 | inactive |
| CG14854 | DRSC14978 | 1.27e6 | 1.33e6 | 1.16e6 | 1.28e6 | inactive |
| CG4367 | DRSC15568 | 1.43e6 | 1.41e6 | 1.09e6 | 1.22e6 | inactive |
| TotZ | DRSC13450 | 1.38e6 | 1.36e6 | 9.88e5 | 1.03e6 | inactive |
| CG13457 | DRSC10004 | 1.33e6 | 1.34e6 | 1.31e6 | 1.42e6 | inactive |

Looked up above:
Value for E(z) [DRSC11147] in “activity call”: inactive
CG18449 [DRSC06754], S2R+ cell number, rep 1 → 1.28e6
Under “S2R+ cell number, rep 2”, CG10576 [DRSC09745] has 9.01e5
Value of Obp18a [DRSC19736] in “Kc cell number, rep 1”: 1.43e6
SCaMC [DRSC10415], S2R+ cell number, rep 2 = 1.60e6

The results go on:
| gene knocked down | DRSC id | Kc cell number, rep 1 | Kc cell number, rep 2 | S2R+ cell number, rep 1 | S2R+ cell number, rep 2 | activity call |
| --- | --- | --- | --- | --- | --- | --- |
| CG31806 | DRSC02787 | 1.53e6 | 1.52e6 | 1.19e6 | 1.28e6 | inactive |
| RpL37-1 | DRSC20149 | 1.38e6 | 1.51e6 | 9.07e5 | 1.01e6 | inactive |
| kat-60L1 | DRSC12184 | 1.47e6 | 1.53e6 | 1.26e6 | 1.35e6 | inactive |
| CG9451 | DRSC11074 | 1.39e6 | 1.48e6 | 1.28e6 | 1.36e6 | inactive |
| CG17328 | DRSC01927 | 1.41e6 | 1.33e6 | 1.04e6 | 1.19e6 | inactive |
| Gr39b | DRSC01848 | 5.56e5 | – | 8.36e5 | – | inactive |
| ebo | DRSC18787 | 4.61e5 | – | 7.59e5 | – | inactive |
| CG7639 | DRSC07026 | 1.47e6 | 1.52e6 | 1.33e6 | 1.40e6 | inactive |
| E(spl)mbeta-HLH | DRSC16697 | 5.84e5 | – | 7.72e5 | – | inactive |
| und | DRSC03629 | 1.50e6 | 1.55e6 | 9.86e5 | 1.02e6 | inactive |
| CG3939 | DRSC18498 | 1.55e6 | 1.63e6 | 1.05e6 | 1.24e6 | inactive |
| CG6168 | DRSC10596 | 1.45e6 | 1.36e6 | 1.41e6 | 1.47e6 | inactive |
| CG31759 | DRSC01230 | 1.55e6 | 1.58e6 | 1.07e6 | 1.27e6 | inactive |
| CG7290 | DRSC10800 | 1.66e6 | 1.84e6 | 1.21e6 | 1.41e6 | inactive |
| eloF | DRSC15162 | 1.73e6 | 1.85e6 | 1.30e6 | 1.37e6 | inactive |
| Eig71Ef | DRSC11153 | 1.53e6 | 1.55e6 | 1.16e6 | 1.39e6 | inactive |
| CG7142 | DRSC16204 | 1.32e6 | 1.30e6 | 1.04e6 | 1.12e6 | inactive |
| CG3792 | DRSC02725 | 1.45e6 | 1.46e6 | 1.24e6 | 1.37e6 | inactive |
| CG42671 | DRSC10321 | 1.26e6 | 1.31e6 | 1.27e6 | 1.30e6 | inactive |
| stum | DRSC04268 | 1.51e6 | 1.63e6 | 1.35e6 | 3.17e5 | inactive |
| stum | DRSC04270 | 1.58e6 | 1.73e6 | 1.42e6 | 3.91e5 | inactive |
| CG5968 | DRSC02916 | 1.64e6 | 1.62e6 | 1.36e6 | 1.58e6 | inactive |
| Ilp6 | DRSC17906 | 1.49e6 | 1.49e6 | 1.00e6 | 1.10e6 | inactive |
| hook | DRSC03545 | 1.33e6 | 1.35e6 | 1.23e6 | 1.25e6 | inactive |
| CG10597 | DRSC19357 | 1.35e6 | 1.39e6 | 9.51e5 | 1.12e6 | inactive |
| CG14050 | DRSC18594 | 1.52e6 | 1.49e6 | 9.86e5 | 1.07e6 | inactive |
